Source: PMC4738300, “Physiological lipid composition is vital for homotypic ER membrane fusion mediated by the dynamin-related GTPase Sey1p” (Scientific Reports, 2016)
Results are given in words; binding and its absence hold for the method and conditions named. Where a sequence is shown, tags or fusion partners need not be part of it.

Target: Sey1p (tagged full-length recombinant Sey1p: GST-His6-3C-Sey1p and His6-3C-Sey1p) (S. cerevisiae) (UniProt Q99287)
Assay: condition: only with 1 mM ATP or without any nucleotide (no GTP); pull-down; as a1, but with 1 mM ATP or without any nucleotide in place of GTP; both purified

binding: no binding
B1: Sey1p (tagged full-length recombinant Sey1p: GST-His6-3C-Sey1p and His6-3C-Sey1p) (natural protein, S. cerevisiae, UniProt Q99287 1-776, looked up)
chain: MADRPAIQLIDEEKEFHQSALQYFQQCIGNRDVGLDYHVISVFGSQSSGKSTLLNVLFNTNFDTMDAQVKRQQTTKGIWLAHTKQVNTTIEIDNDRPDIFVLDVEGSDGSERGEDQDFERKAALFAIAVSEVLIVNMWEQQIGLYQGNNMALLKTVFEVNLSLFGKNDNDHKVLLLFVIRDHVGVTPLSSLSDSVTRELEKIWTELSKPAGCEGSSLYDYFDLKFVGLAHKLLQEDKFTQDVKKLGDSFVMKGTENYYFKPQYHHRLPLDGWTMYAENCWDQIERNKDLDLPTQQILVARFKTEEISNEALEEFISKYDESIAPLKGNLGSLTSQLVKLKEECLTKYDEQASRYARNVYMEKREALNTKLNSHISGTINEFLESLMEKLWDDLKLEVSSRDKATTSFVESVAAGKSKIEKEFNESMETFKKLGLLISNEEITCKFSDDIEERIKQLRDAELKAKIGRIKKNLVPELKDHVIHLLSHPSKKVWDDIMNDFESTIKDNISAYQVEKDKYDFKIGLSESENAKIYKNIRILAWRTLDTTVHDYLKIDTIVSILRDRFEDVFRYDAEGSPRLWKTEEEIDGAFRVAKEHALEVFEVLSLAVTSDNVEIIPDVPMAEEESGEDNEIYRDNEGVFHSRRFAHILTELQKENVLDQFRRQINITVLDSKRSIITTRTHIPPWIYVLLAVLGWNEFVAVIRNPLFVTLTLILGATFFVIHKFGLWGPVVNVVQSAVGETRTAIKDKLRQFVVEDHEVKESFEMKDFSKNEQKEK
notes: The bait copy is GST-His6-3C-Sey1p (pET-41 Ek/LIC) and the prey copy is His6-3C-Sey1p (pET-30 Ek/LIC); GST is on the bait copy only; The tags were not cleaved in the pull-down; also called GST-Sey1p; His6-Sey1p; source: E. coli Rosetta 2(DE3)pLysS, purified (COSMOGEL His-Accept beads, imidazole elution, dialysis; in 0.4% Triton X-100); not shown: His6, N-terminal, kept; GST, N-terminal, kept
